For at least one entry, the source does not settle the construct or the ends of the probe. A weaker result is weaker than the reference pair of the same experiment. At least one verdict was read from the data and is not stated in words by the source.

The values that follow come from paper PMC10920880.

The data set concerns the target Hfq (Escherichia coli K12) (UniProt P0A6X3). Description: smFRET. The note with it: smFRET: 10 mM Tris-HCl pH 7.5, 50 mM NaCl, 50 mM KCl, 4 mM Trolox, 0.01% Nikkol, 0.8% glucose, RNasin, oxygen scavenger, recombinant protein.

“GGACUCUAUCGAGUCCAACAACAACAACAACAACCCCUGCAUCACCUAAACUUUACUCUACCAUCACCAGACCUCGCGCCCAGGACGACACACUUUGGACAGGACACACAGGACACAGG / TGATGGTAGAGTAAAGTTTAGGTGATGC / CCTGTGTCCTGTGTGTCCTGTCCAAAGTGTGTCGTCC [(AAC)6-Cy5-N35-S6 mRNA + 28 nt spacer ASO on DNA tether]”: under “sRNA (N13)-Hfq, mostly transient 0.3 s, tau long 198 ± 44 s (0.22), internal Cy5 after nt 35”, the binding result is reported as “binds more weakly”.

As to “GAGGUCAAACUUAUUUUUUUCGUCCAUUUCGGACGUUUUUU [model sRNA]”, the binding result (5 nM 1:1 complex with Hfq hexamer, label: 5' Alexa Fluor 555) is “binds”.
